Assay results from paper PMC12204631.
These are yes or no findings as the source states them, for the method shown. In cells and extracts the contact can be indirect. These calls come from enrichment with a bait or labelling near it, and not all partners need be listed. Sequences can lack the tags named with a protein. Values belong to the binder of their own block, whether it stands above or below them.

Molecular target: T1, 6HIS-HA-JHD2 (S. cerevisiae) (UniProt P47156)
T1 sequence: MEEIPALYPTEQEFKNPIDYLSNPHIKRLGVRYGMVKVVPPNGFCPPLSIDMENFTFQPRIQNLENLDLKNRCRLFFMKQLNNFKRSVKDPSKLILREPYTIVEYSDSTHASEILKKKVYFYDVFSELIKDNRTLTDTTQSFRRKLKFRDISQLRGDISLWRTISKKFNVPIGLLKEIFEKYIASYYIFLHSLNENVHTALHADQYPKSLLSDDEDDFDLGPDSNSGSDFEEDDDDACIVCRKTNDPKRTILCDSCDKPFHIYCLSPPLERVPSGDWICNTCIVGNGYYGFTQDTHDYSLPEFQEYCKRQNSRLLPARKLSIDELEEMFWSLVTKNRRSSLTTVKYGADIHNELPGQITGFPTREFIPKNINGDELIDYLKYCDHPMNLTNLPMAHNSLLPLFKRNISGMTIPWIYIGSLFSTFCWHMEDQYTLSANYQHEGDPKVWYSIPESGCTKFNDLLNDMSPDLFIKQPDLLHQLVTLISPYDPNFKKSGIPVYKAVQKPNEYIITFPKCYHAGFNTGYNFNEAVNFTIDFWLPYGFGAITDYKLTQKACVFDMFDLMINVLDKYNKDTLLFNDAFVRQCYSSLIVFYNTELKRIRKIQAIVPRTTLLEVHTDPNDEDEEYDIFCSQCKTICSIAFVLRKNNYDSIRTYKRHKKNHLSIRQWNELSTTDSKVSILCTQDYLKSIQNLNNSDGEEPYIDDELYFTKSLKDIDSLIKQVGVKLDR
Assay: affinity purification with mass spectrometry; whole cell extracts of a wild-type strain with 6HIS-HA-JHD2 induced from the GAL1 promoter for 6 hours; Ni-NTA agarose and anti-HA agarose beads at 4°C for 24 hours; proteins found with the empty vector strain excluded

B3: CDC31 (protein, UniProt P06704 1-161)
chain: MSKNRSSLQSGPLNSELLEEQKQEIYEAFSLFDMNNDGFLDYHELKVAMKALGFELPKREILDLIDEYDSEGRHLMKYDDFYIVMGEKILKRDPLDEIKRAFQLFDDDHTGKISIKNLRRVAKELGETLTDEELRAMIEEFDLDGDGEINENEFIAICTDS
- binding: binds

B4: CNM67 (protein, UniProt P53865 1-581)
chain: MTDFDLMNFPFHERLDSPVSENGEIKDGEPIPQNWLNENHVGKSILPLFVNPEDVINCNFSNARDSYEENKSPSMDQMNYARNTSYQESPGLQERPKNEKDKSPIGTDVHKKDVPNFIHSTPRENSSKHFTRANEQASAQPTDEHTSPDISIEDCNGAKIFLQNSLSKEDFRMLENVILGYQKKVIELGRDNLRQEERANSLQKELEAATKSNDKTLDNKKKIEEQTVLIENLTKDLSLNKEMLEKANDTIQTKHTALLSLTDSLRKAELFEIPIGILFFDLYDSEENSSKLDHILQEKYPNIKGFLCASQQEELSRISQRFKNAKAEAEDLRNELENKKIEIQTMREKNNTLIGTNKTLSKQNKILCDKFDKLTIDEKEILKGCNEEIKIKLERLNERLGSWEKSKEKYETSLKDKEKMLADAEKKTNTLSKELDNLRSRFGNLEGNTSERITIKNILQSRPDISAEECNFLMVEQIDSANLTTLQNTVKEIVLAVGIPYPKLRRKIPLLAIKLKYENIMLSNFAQRLHRQVYSQEMNLKKFTDQAYYDFMSTRRMDSIDHHLERCLDHLYDHILEKMVK
- binding: binds

B6: BUB2 (protein, UniProt P26448 1-306)
chain: MTSIEDLISNPPLLLHSSLSQLRYLILSEGLPISEDKQQQRTRCYVWTVLSQTSMEASTQRYLALLKLGPPSTTIYQKIKNDTSRTFQTDPNFRNRVSEDALIRCLSCFAWQTQQRRQKTRFGRIPVSTYVQGMNVLLAPLLYSCPSEPMAYQLFTKLCYEMIPTYLTKNLNGAQNGAKLLDISLRIIDPKLSKFLSDNLLTAEIYGMPSILTLSSCNKPLDQVIKLWDFMFAYGFHMNILFVVAFLVKMRSKVFKSDSPVNLLRQFPDFDADEIIRLGVGFIAKIPAQIYDLLVDHLTDPDIYIP
- binding: binds

B8: CSM1 (protein, UniProt P25651 1-190)
chain: MDPLTVYKNSVKQQIDSADLLVANLVNENFVLSEKLDTKATEIKQLQKQIDSLNAQVKELKTQTSQQAENSEVIKDLYEYLCNVRVHKSYEDDSGLWFDISQGTHSGGSSDDYSIMDYKLGFVKGQAQVTEVIYAPVLKQRSTEELYSLQSKLPEYLFETLSFPLSSLNQFYNKIAKSLNKKREKKDETE
- binding: binds

Further lines, results first:

- binding: binds
B1: SMC5 (protein, UniProt Q08204 1-1093)
chain: MTSLIDLGRYVERTHHGEDTEPRSKRVKIAKPDLSSFQPGSIIKIRLQDFVTYTLTEFNLSPSLNMIIGPNGSGKSTFVCAVCLGLAGKPEYIGRSKKVEDFIKNGQDVSKIEITLKNSPNVTDIEYIDARDETIKITRIITRSKRRSDYLINDYQVSESVVKTLVAQLNIQLDNLCQFLSQERVEEFARLKSVKLLVETIRSIDASLLDVLDELRELQGNEQSLQKDLDFKKAKIVHLRQESDKLRKSVESLRDFQNKKGEIELHSQLLPYVKVKDHKEKLNIYKEEYERAKANLRAILKDKKPFANTKKTLENQVEELTEKCSLKTDEFLKAKEKINEIFEKLNTIRDEVIKKKNQNEYYRGRTKKLQATIISTKEDFLRSQEILAQTHLPEKSVFEDIDIKRKEIINKEGEIRDLISEIDAKANAINHEMRSIQRQAESKTKSLTTTDKIGILNQDQDLKEVRDAVLMVREHPEMKDKILEPPIMTVSAINAQFAAYLAQCVDYNTSKALTVVDSDSYKLFANPILDKFKVNLRELSSADTTPPVPAETVRDLGFEGYLSDFITGDKRVMKMLCQTSKIHTIPVSRRELTPAQIKKLITPRPNGKILFKRIIHGNRLVDIKQSAYGSKQVFPTDVSIKQTNFYQGSIMSNEQKIRIENEIINLKNEYNDRKSTLDALSNQKSGYRHELSELASKNDDINREAHQLNEIRKKYTMRKSTIETLREKLDQLKREARKDVSQKIKDIDDQIQQLLLKQRHLLSKMASSMKSLKNCQKELISTQILQFEAQNMDVSMNDVIGFFNEREADLKSQYEDKKKFVKEMRDTPEFQSWMREIRSYDQDTKEKLNKVAEKYEEEGNFNLSFVQDVLDKLESEIAMVNHDESAVTILDQVTAELRELEHTVPQQSKDLETIKAKLKEDHAVLEPKLDDIVSKISARFARLFNNVGSAGAVRLEKPKDYAEWKIEIMVKFRDNAPLKKLDSHTQSGGERAVSTVLYMIALQEFTSAPFRVVDEINQGMDSRNERIVHKAMVENACAENTSQYFLITPKLLTGLHYHEKMRIHCVMAGSWIPNPSEDPKMIHFGETSNYSFD

- binding: binds
B2: KAR3 (protein, UniProt P17119 1-729)
chain: MESLPRTPTKGRSTQHLSTPSPKNDILAMNGHKRRNTTTPPPKHTLLKPQRTDIHRHSLASQSRISMSPNRELLKNYKGTANLIYGNQKSNSGVTSFYKENVNELNRTQAILFEKKATLDLLKDELTETKEKINAVNLKFETLREEKIKIEQQLNLKNNELISIKEEFLSKKQFMNEGHEIHLKQLAASNKKELKQMENEYKTKIEKLKFMKIKQFENERASLLDKIEEVRNKITMNPSTLQEMLNDVEQKHMLEKEEWLTEYQSQWKKDIELNNKHMQEIESIKKEIENTLKPELAEKKKLLTEKRNAYEAIKVKVKEKEEETTRLRDEVALKQKTNLETLEKIKELEEYIKDTELGMKELNEILIKEETVRRTLHNELQELRGNIRVYCRIRPALKNLENSDTSLINVNEFDDNSGVQSMEVTKIQNTAQVHEFKFDKIFDQQDTNVDVFKEVGQLVQSSLDGYNVCIFAYGQTGSGKTFTMLNPGDGIIPSTISHIFNWINKLKTKGWDYKVNCEFIEIYNENIVDLLRSDNNNKEDTSIGLKHEIRHDQETKTTTITNVTSCKLESEEMVEIILKKANKLRSTASTASNEHSSRSHSIFIIHLSGSNAKTGAHSYGTLNLVDLAGSERINVSQVVGDRLRETQNINKSLSCLGDVIHALGQPDSTKRHIPFRNSKLTYLLQYSLTGDSKTLMFVNISPSSSHINETLNSLRFASKVNSTRLVSRK

- binding: binds
B5: IRC15 (protein, UniProt Q02733 1-499)
chain: MGGEDEILSTMEDFAAVYDVLVIGCGPGGFTAAMQASQAGLLTACVDQRASLGGAYLVDGAVPSKTLLYESYLYRLLQQQELIEQRGTRLFPAKFDMQAAQSALKHNIEELGNVYKRELSKNNVTVYKGTAAFKDPHHVEIAQRGMKPFIVEAKYIVVATGSAVIQCPGVAIDNDKIISSDKALSLDYIPSRFTIMGGGTIGLEIACIFNNLGSRVTIVESQSEICQNMDNELASATKTLLQCQGIAFLLDTRVQLAEADAAGQLNITLLNKVSKKTYVHHCDVLMVSIGRRPLLKGLDISSIGLDERDFVENVDVQTQSLLKYPHIKPIGDVTLGPMLALKAEEQAIRAIQSIGCTGSDGTSNCGFPPNVLYCQPQIGWVGYTEEGLAKARIPYQKGRVLFSQNVRYNTLLPREENTTVSPFIKVLIDSRDMKILGVHMINDDANELLSQASMAVSLGLTAHDVCKVPFPHPSLSESFKQAVQLAMANGTSPGVHVRE

- binding: binds
B7: SMC4 (protein, UniProt Q12267 1-1418)
chain: MSDSPLSKRQKRKSAQEPELSLDQGDAEEDSQVENRVNLSENTPEPDLPALEASYSKSYTPRKLVLSSGENRYAFSQPTNSTTTSLHVPNLQPPKTSSRGRDHKSYSQSPPRSPGRSPTRRLELLQLSPVKNSRVELQKIYDRHQSSSKQQSRLFINELVLENFKSYAGKQVVGPFHTSFSAVVGPNGSGKSNVIDSMLFVFGFRANKMRQDRLSDLIHKSEAFPSLQSCSVAVHFQYVIDESSGTSRIDEEKPGLIITRKAFKNNSSKYYINEKESSYTEVTKLLKNEGIDLDHKRFLILQGEVENIAQMKPKAEKESDDGLLEYLEDIIGTANYKPLIEERMGQIENLNEVCLEKENRFEIVDREKNSLESGKETALEFLEKEKQLTLLRSKLFQFKLLQSNSKLASTLEKISSSNKDLEDEKMKFQESLKKVDEIKAQRKEIKDRISSCSSKEKTLVLERRELEGTRVSLEERTKNLVSKMEKAEKTLKSTKHSISEAENMLEELRGQQTEHETEIKDLTQLLEKERSILDDIKLSLKDKTKNISAEIIRHEKELEPWDLQLQEKESQIQLAESELSLLEETQAKLKKNVETLEEKILAKKTHKQELQDLILDLKKKLNSLKDERSQGEKNFTSAHLKLKEMQKVLNAHRQRAMEARSSLSKAQNKSKVLTALSRLQKSGRINGFHGRLGDLGVIDDSFDVAISTACPRLDDVVVDTVECAQHCIDYLRKNKLGYARFILLDRLRQFNLQPISTPENVPRLFDLVKPKNPKFSNAFYSVLRDTLVAQNLKQANNVAYGKKRFRVVTVDGKLIDISGTMSGGGNHVAKGLMKLGTNQSDKVDDYTPEEVDKIERELSERENNFRVASDTVHEMEEELKKLRDHEPDLESQISKAEMEADSLASELTLAEQQVKEAEMAYVKAVSDKAQLNVVMKNLERLRGEYNDLQSETKTKKEKIKGLQDEIMKIGGIKLQMQNSKVESVCQKLDILVAKLKKVKSASKKSGGDVVKFQKLLQNSERDVELSSDELKVIEEQLKHTKLALAENDTNMNETLNLKVELKEQSEQLKEQMEDMEESINEFKSIEIEMKNKLEKLNSLLTYIKSEITQQEKGLNELSIRDVTHTLGMLDDNKMDSVKEDVKNNQELDQEYRSCETQDESEIKDAETSCDNYHPMNIDETSDEVSRGIPRLSEDELRELDVELIESKINELSYYVEETNVDIGVLEEYARRLAEFKRRKLDLNNAVQKRDEVKEQLGILKKKRFDEFMAGFNIISMTLKEMYQMITMGGNAELELVDSLDPFSEGVTFSVMPPKKSWRNITNLSGGEKTLSSLALVFALHKYKPTPLYVMDEIDAALDFRNVSIVANYIKERTKNAQFIVISLRNNMFELAQQLVGVYKRDNRTKSTTIKNIDILNRT
